Literature values, collected in patent US20150010612A1, “BIODEGRADABLE NON-WOVEN MATERIAL FOR MEDICAL PURPOSES” (HERAEUS MEDICAL GMBH, priority 2012, published 2015).
Some of these results come from one statement about several compounds together.

Conditions: in vivo

For “bovine thrombin: thrombin protease used in active haemostatic agents”, the “Cases with induction of antibodies” value is listed as “up to 94%”.
